Earlier results in patent publication US20050065595A1, “Implants containing combretastatin a-4” (priority 2001, published 2005).
At least one compound was matched to its structure with a doubt left.

What was measured:
[1] = system: neointimal development; settings: animal experiments; cited from earlier work
[2] = system: restenosis; settings: cited from earlier work

## CO[C@H]1C[C@@H]2CC[C@@H](C)[C@@](O)(O2)C(=O)C(=O)N2CCCC[C@H]2C(=O)O[C@H]([C@H](C)C[C@@H]2CC[C@@H](O)[C@H](OC)C2)CC(=O)[C@H](C)/C=C(\C)[C@@H](O)[C@@H](OC)C(=O)[C@H](C)C[C@H](C)/C=C/C=C/C=C/1C [rapamycin]
[1]
  effect on neointimal development: inhibit the neointimal development
[2]
  restenosis in first clinical applications: the restenosis had disappeared completely
